Test results from article PMC8104389.
Results are given in words; binding and its absence hold for the method and conditions named. Binding seen in cells or lysates may run through a third protein. Some entries that bind do so weakly or less than the wild type.

By UniProt entry, the sequences of proteins in these tests, tags left out.
UniProt O09106: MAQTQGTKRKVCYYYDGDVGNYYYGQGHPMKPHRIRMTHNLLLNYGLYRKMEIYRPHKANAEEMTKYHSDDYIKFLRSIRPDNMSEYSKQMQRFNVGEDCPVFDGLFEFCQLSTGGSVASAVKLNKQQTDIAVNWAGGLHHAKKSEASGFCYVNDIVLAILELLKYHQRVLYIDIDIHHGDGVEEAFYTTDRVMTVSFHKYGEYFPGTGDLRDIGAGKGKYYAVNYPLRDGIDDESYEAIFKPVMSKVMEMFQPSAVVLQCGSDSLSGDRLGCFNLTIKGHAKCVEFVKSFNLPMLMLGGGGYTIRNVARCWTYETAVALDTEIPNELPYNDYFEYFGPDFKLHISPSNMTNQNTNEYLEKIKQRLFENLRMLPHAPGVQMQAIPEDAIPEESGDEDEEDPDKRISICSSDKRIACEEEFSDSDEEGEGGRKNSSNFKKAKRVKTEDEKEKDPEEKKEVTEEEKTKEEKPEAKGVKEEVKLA

Target: histone deacetylase 1 (HDAC1), endogenous in mouse testis (mouse (endogenous in testis)) (UniProt O09106)
Test: co-IP; testis lysate; IP with an anti-HDAC1 antibody, immunoblot for KCTD19; NP40 lysis buffer, 1 h at 4°C

- binding: binds
B1: potassium channel tetramerization domain containing 19 (KCTD19), endogenous in mouse testis (protein, UniProt Q562E2-2 1-950)
chain: MEEPGGLHESAEDLFHFNVGGWHFSVPRSKLAQFPDSLLWKEASALTSSENQRLFIDRDGSTFRHVHYYLYTSKLSFSSCAELNLLYEQALGLQLMPLLQTLDNLKEGRHHLRVRPADIPVAERASLNYWRTWKCISKPSDFPIKSPAFTGLHDKAPLGLMDTPLLDTEEEVHYCFLPLDLVAKYPSLVTEDNLLWLAETVALIECECSEFRFIVNFLRSHKILLPDNFSNIDVLEAEVEILEIPELTEAVRLYRMNMALQPALPGPKGSQLSLEQEEPSLGGCSRTSCPPLSPGKGGRTASVESVKPLYLMALGLLVKYPDSALGQLRIESTLDGSRLYITGNGALFQHVRNWLGTCRLPLTETISEVYELCAFLDKRDITYEPMKVALKTHLEPRTLLPVDVLSEEWTAEVTIYSPQQIIKLYVGSHWYATTLQTLMKYPELLSNTQRVYWIAYGQTLLIHGDGQMFRHILNFLRLGKLFLPSEFKEWPLFCQEVEEYHIPALSEALAQCEAYKSWTQEKESENEEAFPIRKLHVVTEGTGPMAEFSRDAKETTACMPVDFQECSDRTPWNKAKGNLTRSSQMEEAEQYTRTIQVSLCRNAKRGGNPSTYSHCSGLCANPRHWGGHSESPPKKKCTTINLTQKPDAKDPPVTPMQKLISLVREWDMVNCKQWEFQPLPASRSSSVEEASLHVPSGSEAAPQPGTSAAWKAHSITSEKDAGPQTGPGAGVKDKGPEPTFKPYFPTKRAITLKDWGKQRPKDRESPAPEQPLPNANGTDNPGAILKVAHPPVVGNDGSCMFFEDSIIYTTQMDNIKHTSLTASPQLREVTFLSFSLSWEEMFYAQKCHRFLTDIILDSIRQKDPKAITAKVVSLAYRLWTLNISPKQFVVDLLAIAGFKDDRHTQERLYSWVELTLPFARKYGRCVDLLIQRGLSRSVSYSVLGKYLHEG
